# Reference: PubChem BioAssay AID1347076 (National Center for Advancing Translational Sciences (NCATS), 2019)
# Among all 400,000 compounds or so, about 13,000 (3.2%) were called active. The shares of active, inactive and inconclusive entries below differ from those in the screen. The call rests on the fitted dose curve; in most records, active means well fitted cell-killing curve with a large enough effect; inconclusive means small, poorly fitted or top-dose-only effect, or effect the other way; inactive means flat fitted curve, though single readings scatter. Where the call is inconclusive, the potency comes from a doubtful curve fit.
# Test: qHTS assay for MDR1-selective chemotherapeutics: Primary screen using the drug-selected MDR subline cells KB-V1; further: nearly all actives have a fitted effect of over 60% in size
# Settings: KB-V1 MDR cells viability, CellTiter-Glo, 72 h; activity change, negative = cytotoxicity: at 46.1 µM (top of the series)
# In short: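 Luminescent ATP read-out (CellTiter-Glo, 10 min) measures survival of drug-selected KB-V1 MDR cells after 72 h, 37 degrees C compound exposure. Medium: phenol-red-free DMEM, 10% FBS. Values from fitted concentration-response curves.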
# On the % scale 0 is the no-effect control and ±100 the full control effect; potency means the concentration at half of the fitted maximal effect.
SMILES,Potency,"activity change, negative = cytotoxicity"
CC(=O)Nc1ccccc1NS(=O)(=O)c1ccc(Cl)cc1,active: 13 µM,–
Oc1c(CN2CCOCC2)cc(COCc2ccccc2)c2cccnc12,"inconclusive: 9.2 µM [cytotoxic, partial curve, poor fit]",–
CCOC(=O)c1ccc(COC(=O)CCc2nc3ccccc3[nH]c2=O)o1,"inconclusive: 23.1 µM [rising, single point]",–
CCn1c(COc2ccccc2C)nc2ccccc21,"inconclusive: 18.4 µM [cytotoxic, single point]",–
CCCCCCC[n+]1c(/C=C/c2ccc(N(C)C)cc2)sc2ccccc21,"inconclusive: 29.1 µM [cytotoxic, single point]",–
O=c1[nH]c(=S)[nH]c2c1C(c1ccc(F)cc1)OC(CCc1ccccc1)C2 (centres undefined),"inconclusive: 13 µM [rising, partial curve, poor fit]",–
COc1ccc(-c2csc3ncnc(N4CCN(S(=O)(=O)c5ccc(Cl)s5)CC4)c23)cc1,"inconclusive: 29.1 µM [cytotoxic, single point]",–
Cc1ccc2oc3c(c(=O)c2c1)C(c1ccc(O)cc1)N(c1nc(C)c(C)s1)C3=O (centres undefined),–,inactive: -4.27%
COc1ccccc1C(=O)N(c1ccc(C)cc1)S(=O)(=O)c1ccc(Cl)cc1,"inconclusive: 23.1 µM [cytotoxic, single point]",–
Cc1cc(C(=O)Nc2ccc(Cl)cc2)on1,"inconclusive: 32.6 µM [rising, single point]",–
Cn1c(=O)c2c(nc(C3CC4C5CCC(C5)C4C3)n2C)n(C)c1=O (centres undefined),active: 14.6 µM,–
CC1(C)Cc2c(c(N3CCOCC3)nc3sc(-c4ccc(C(=O)O)o4)c(N)c23)CO1,"inconclusive: 20.6 µM [rising, single point]",–
Cc1nn(-c2ccccc2)c(Cl)c1/C=N\NC(=O)c1cnccn1,–,inactive: -8.97%
C/C(=N\Nc1ccc(C(F)(F)F)cn1)c1ccc(S(=O)(=O)NCc2ccco2)cc1,–,inactive: 1.47%
Cc1cc(C(=O)NNC(=O)Nc2ccc(Cl)cc2)no1,–,inactive: -3.09%
N#Cc1cc([N+](=O)[O-])ccc1NCCCn1ccnc1,–,inactive: 8.46%
CN(C1CCCCC1)S(=O)(=O)c1ccc2c(c1)c(=O)c(C(=O)NCCCN1CCCC1)cn2C,"inconclusive: 20.6 µM [rising, partial curve, poor fit]",–
O=C(Cc1ccccc1)Nc1ccccc1C(=O)N1CCN(c2ccccc2)CC1,"inconclusive: 5.8 µM [cytotoxic, partial curve]",–
COc1ccc(Cn2c(C3CC3)nc3ccc(NC(=O)c4cccnc4)cc3c2=O)cc1,"inconclusive: 3.66 µM [cytotoxic, full curve]",–

# Reformatted tab-delimited: part of the list above
SMILES	Potency	activity change, negative = cytotoxicity
Cn1c(=O)c2c(nc(C3CC4C5CCC(C5)C4C3)n2C)n(C)c1=O (centres undefined)	active: 14.6 µM	–
CC1(C)Cc2c(c(N3CCOCC3)nc3sc(-c4ccc(C(=O)O)o4)c(N)c23)CO1	inconclusive: 20.6 µM [rising, single point]	–
